Measured values reported in publication PMC6262774.
No constants are given. Whether binding was seen depends on the method and setting. In cells and extracts the contact can be indirect. Some entries that bind do so weakly or less than the wild type.

Amino acid sequences for entries named in this document (tags omitted).
UniProt P12814: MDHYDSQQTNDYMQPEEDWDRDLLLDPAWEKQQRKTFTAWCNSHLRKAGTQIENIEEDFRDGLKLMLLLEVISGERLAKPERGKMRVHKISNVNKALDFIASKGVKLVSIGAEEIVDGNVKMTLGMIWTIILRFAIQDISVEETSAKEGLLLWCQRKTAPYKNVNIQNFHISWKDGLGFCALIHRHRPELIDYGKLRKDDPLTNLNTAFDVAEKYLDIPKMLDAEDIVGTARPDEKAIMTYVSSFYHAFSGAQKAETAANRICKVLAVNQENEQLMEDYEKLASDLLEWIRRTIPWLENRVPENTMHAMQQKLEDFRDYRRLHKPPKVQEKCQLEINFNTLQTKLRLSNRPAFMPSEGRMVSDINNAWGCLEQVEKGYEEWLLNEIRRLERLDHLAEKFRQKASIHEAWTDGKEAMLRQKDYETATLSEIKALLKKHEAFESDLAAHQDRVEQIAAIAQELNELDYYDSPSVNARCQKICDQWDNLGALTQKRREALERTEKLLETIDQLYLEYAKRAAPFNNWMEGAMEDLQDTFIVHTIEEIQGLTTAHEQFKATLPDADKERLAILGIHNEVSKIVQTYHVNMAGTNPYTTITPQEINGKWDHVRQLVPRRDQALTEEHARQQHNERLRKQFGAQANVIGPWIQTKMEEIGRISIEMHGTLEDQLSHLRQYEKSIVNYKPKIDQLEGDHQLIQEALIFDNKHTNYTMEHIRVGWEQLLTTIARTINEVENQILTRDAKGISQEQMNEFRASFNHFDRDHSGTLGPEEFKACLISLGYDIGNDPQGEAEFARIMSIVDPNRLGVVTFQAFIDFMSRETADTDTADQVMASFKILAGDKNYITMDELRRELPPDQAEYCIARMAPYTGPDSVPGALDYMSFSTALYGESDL
UniProt Q9NR12: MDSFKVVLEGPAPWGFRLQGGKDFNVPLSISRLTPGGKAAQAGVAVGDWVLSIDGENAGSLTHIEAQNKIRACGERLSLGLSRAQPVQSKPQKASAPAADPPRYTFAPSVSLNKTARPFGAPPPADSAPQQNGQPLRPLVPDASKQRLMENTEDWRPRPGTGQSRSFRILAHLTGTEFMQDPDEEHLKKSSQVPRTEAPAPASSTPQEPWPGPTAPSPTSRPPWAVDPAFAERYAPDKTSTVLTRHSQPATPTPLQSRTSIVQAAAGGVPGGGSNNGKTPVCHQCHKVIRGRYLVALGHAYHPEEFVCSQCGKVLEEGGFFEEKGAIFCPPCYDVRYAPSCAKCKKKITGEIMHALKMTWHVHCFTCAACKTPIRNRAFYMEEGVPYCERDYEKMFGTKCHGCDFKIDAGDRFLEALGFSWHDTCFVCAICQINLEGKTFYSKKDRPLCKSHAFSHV

Columns and labels:
[1] = target: GFP-tagged human YAP (pEGFP C3-YAP2) (human) (UniProt P46937); test: co-IP; GFP-Trap-M beads, lysate of transfected HEK293T cells; lysis buffer 10 mM Tris-HCl pH 7.5, 150 mM NaCl, 0.5% NP-40, 0.5 mM EDTA; 1 h, three washes; blots with anti-PDLIM5 and anti-PDLIM7
[2] = target: GFP-tagged α-actinin 1 (pEGFP-N1 α-actinin 1) (UniProt P12814); test: co-IP; IP of GFP-tagged α-actinin 1 from human Caco2 cells, blots for PDLIM5 and PDLIM7
[3] = target: endogenous YAP of Caco-2 cells (human (endogenous in Caco-2)) (UniProt P46937); test: co-IP; endogenous IP: mouse anti-YAP antibody (63.7), 3 μg, on Dynabeads; Caco-2 lysates processed as for the overexpression co-IPs

PDLIM7 (Enigma) in HEK293T lysate (from UniProt Q9NR12 1-457)
binding [1]: binds

endogenous PDLIM7 (Enigma) of Caco-2 cells (from UniProt Q9NR12 1-457)
binding [2]: binds
binding [3]: binds
